Experimental data reported in patent US20240019450A1, “FLUORESCENT SENSORS” (THE UNIVERSITY OF SYDNEY, priority 2020, published 2024).

Experiment: Fluorescence sensor array on spiked human plasma samples (LDA)
Conditions: for classification accuracy: 14 optimised instrument variables, all concentrations tested; for classification accuracy / correct classification: spiked human plasma; for correct classification: 21 measurements (six sensors at 4 excitation wavelengths); for LDA classification, cross-validated / LDA correct classification: six sensors, four concentrations 0.5-5 μM in spiked human plasma

Compound	classification accuracy [%]	correct classification [%]	LDA classification, cross-validated [%]	LDA correct classification [%]
O=C1[O][Pt]2([NH][C@@H]3CCCC[C@H]3[NH]2)[O]C1=O [oxaliplatin]	100	100	30	80
N.N.[Cl][Pt][Cl] [cisplatin]	100	100	32	79
